Source: article PMC10458163
No constants are given. Whether binding was seen depends on the method and setting. Binding seen in cells or lysates may run through a third protein. Some entries that bind do so weakly or less than the wild type. Sequences can lack the tags named with a protein.

Protein sequences, listed by entry. Tags and fused reporters are not part of them. Lines headed by an entry give the natural chain unless they say otherwise; changes in a name come on top.
UniProt P61088: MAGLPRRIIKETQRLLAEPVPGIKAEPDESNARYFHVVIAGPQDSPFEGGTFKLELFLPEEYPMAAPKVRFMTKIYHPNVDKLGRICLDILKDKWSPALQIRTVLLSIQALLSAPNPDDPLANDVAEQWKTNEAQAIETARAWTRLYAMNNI

B1: HA-OTUD6A fl (enzyme, UniProt Q7L8S5 1-288)
chain: MDDPKSEQQRILRRHQRERQELQAQIRSLKNSVPKTDKTKRKQLLQDVARMEAEMAQKHRQELEKFQDDSSIESVVEDLAKMNLENRPPRSSKAHRKRERMESEERERQESIFQAEMSEHLAGFKREEEEKLAAILGARGLEMKAIPADGHCMYRAIQDQLVFSVSVEMLRCRTASYMKKHVDEFLPFFSNPETSDSFGYDDFMIYCDNIVRTTAWGGQLELRALSHVLKTPIEVIQADSPTLIIGEEYVKKPIILVYLRYAYSLGEHYNSVTPLEAGAAGGVLPRLL
B2: HA-OTUD6A d1-50 (domain or fragment, UniProt Q7L8S5 51-288)
chain: MEAEMAQKHRQELEKFQDDSSIESVVEDLAKMNLENRPPRSSKAHRKRERMESEERERQESIFQAEMSEHLAGFKREEEEKLAAILGARGLEMKAIPADGHCMYRAIQDQLVFSVSVEMLRCRTASYMKKHVDEFLPFFSNPETSDSFGYDDFMIYCDNIVRTTAWGGQLELRALSHVLKTPIEVIQADSPTLIIGEEYVKKPIILVYLRYAYSLGEHYNSVTPLEAGAAGGVLPRLL
B3: HA-OTUD6A d1-100 (domain or fragment, UniProt Q7L8S5 101-288)
chain: MESEERERQESIFQAEMSEHLAGFKREEEEKLAAILGARGLEMKAIPADGHCMYRAIQDQLVFSVSVEMLRCRTASYMKKHVDEFLPFFSNPETSDSFGYDDFMIYCDNIVRTTAWGGQLELRALSHVLKTPIEVIQADSPTLIIGEEYVKKPIILVYLRYAYSLGEHYNSVTPLEAGAAGGVLPRLL

Tests used:
Flag-UBC13 = Flag-UBC13 (UniProt P61088); assay: co-IP
Flag-UBC13-C87A = Flag-UBC13-C87A (UniProt P61088); assay: co-IP

| Binder | binding (Flag-UBC13) | binding (Flag-UBC13-C87A) |
| --- | --- | --- |
| B1 | binds | binds |
| B2 | binds | – |
| B3 | binds | – |
